We go through 5 molecules from paper PMC10805786.

Sequences of proteins named here, by UniProt entry; tags and fusion partners are left off. A change or cut given only in a name is not applied to a line headed by its entry.
UniProt P04406: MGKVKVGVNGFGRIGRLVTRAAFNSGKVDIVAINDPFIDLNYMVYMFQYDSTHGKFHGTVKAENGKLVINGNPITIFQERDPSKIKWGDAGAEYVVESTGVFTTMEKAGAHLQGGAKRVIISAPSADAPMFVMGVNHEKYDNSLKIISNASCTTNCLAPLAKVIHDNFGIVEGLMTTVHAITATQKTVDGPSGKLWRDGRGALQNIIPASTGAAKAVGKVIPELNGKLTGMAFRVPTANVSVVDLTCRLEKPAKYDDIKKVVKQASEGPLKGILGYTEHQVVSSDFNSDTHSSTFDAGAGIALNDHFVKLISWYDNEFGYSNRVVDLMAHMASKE
UniProt P00558: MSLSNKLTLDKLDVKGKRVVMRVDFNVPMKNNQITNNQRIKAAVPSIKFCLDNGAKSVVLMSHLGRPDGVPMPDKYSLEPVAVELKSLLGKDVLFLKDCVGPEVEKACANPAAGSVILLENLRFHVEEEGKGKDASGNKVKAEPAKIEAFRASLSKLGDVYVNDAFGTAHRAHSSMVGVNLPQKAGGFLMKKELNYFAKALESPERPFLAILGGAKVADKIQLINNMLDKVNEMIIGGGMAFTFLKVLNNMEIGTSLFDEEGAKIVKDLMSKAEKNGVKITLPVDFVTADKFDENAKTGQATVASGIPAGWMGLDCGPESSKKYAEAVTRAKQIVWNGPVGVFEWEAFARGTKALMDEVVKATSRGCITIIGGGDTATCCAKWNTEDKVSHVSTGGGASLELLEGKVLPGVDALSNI
UniProt P14618: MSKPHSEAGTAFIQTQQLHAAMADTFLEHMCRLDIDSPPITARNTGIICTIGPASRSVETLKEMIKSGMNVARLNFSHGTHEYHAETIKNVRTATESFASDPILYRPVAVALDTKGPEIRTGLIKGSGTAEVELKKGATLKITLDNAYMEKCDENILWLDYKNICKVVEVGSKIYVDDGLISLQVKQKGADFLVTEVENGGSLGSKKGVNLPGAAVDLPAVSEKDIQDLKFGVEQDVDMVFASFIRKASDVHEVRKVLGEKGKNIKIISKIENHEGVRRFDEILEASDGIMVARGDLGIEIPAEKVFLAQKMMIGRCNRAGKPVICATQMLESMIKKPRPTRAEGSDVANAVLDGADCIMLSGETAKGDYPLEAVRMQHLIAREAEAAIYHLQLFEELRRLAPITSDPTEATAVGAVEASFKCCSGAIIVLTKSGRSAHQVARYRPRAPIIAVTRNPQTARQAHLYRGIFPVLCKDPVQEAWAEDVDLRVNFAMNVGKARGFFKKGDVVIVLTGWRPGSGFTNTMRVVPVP
UniProt P60174: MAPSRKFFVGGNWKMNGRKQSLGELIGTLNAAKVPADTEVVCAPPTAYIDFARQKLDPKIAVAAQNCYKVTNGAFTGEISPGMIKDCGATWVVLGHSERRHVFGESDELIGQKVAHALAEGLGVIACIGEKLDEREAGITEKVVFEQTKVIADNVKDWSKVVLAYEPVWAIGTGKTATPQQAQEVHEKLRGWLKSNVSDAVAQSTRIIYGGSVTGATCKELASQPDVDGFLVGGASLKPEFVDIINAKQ
UniProt Q99KE1: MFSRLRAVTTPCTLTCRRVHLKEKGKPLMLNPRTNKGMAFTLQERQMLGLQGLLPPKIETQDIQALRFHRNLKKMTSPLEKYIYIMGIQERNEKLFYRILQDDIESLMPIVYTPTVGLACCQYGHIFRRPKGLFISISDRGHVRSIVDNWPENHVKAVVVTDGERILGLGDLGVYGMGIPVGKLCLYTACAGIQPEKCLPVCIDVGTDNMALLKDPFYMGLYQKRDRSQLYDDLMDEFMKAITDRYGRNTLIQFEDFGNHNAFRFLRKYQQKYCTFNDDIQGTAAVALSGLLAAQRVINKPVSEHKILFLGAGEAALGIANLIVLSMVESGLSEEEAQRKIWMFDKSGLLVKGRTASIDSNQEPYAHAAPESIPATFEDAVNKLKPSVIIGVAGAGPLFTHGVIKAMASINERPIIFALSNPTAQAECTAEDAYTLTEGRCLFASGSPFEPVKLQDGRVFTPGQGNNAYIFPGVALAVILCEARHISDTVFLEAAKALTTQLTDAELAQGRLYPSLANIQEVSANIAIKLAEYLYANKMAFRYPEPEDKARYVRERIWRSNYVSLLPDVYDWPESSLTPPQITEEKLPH
UniProt P23368: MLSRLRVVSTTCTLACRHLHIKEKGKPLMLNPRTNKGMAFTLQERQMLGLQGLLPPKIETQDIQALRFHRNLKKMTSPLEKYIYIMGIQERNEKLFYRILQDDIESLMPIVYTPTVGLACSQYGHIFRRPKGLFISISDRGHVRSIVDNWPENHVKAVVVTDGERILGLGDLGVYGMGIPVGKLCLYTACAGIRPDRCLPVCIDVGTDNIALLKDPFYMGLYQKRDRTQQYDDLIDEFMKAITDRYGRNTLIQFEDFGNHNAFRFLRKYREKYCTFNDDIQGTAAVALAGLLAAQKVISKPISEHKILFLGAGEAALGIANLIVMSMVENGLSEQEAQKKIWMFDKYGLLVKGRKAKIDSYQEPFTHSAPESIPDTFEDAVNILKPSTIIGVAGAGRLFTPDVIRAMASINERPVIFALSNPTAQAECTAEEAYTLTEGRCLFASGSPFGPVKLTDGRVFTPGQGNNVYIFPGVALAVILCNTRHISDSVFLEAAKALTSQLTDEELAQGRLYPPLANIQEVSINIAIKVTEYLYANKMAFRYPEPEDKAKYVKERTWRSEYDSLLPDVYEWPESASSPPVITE
UniProt P52480: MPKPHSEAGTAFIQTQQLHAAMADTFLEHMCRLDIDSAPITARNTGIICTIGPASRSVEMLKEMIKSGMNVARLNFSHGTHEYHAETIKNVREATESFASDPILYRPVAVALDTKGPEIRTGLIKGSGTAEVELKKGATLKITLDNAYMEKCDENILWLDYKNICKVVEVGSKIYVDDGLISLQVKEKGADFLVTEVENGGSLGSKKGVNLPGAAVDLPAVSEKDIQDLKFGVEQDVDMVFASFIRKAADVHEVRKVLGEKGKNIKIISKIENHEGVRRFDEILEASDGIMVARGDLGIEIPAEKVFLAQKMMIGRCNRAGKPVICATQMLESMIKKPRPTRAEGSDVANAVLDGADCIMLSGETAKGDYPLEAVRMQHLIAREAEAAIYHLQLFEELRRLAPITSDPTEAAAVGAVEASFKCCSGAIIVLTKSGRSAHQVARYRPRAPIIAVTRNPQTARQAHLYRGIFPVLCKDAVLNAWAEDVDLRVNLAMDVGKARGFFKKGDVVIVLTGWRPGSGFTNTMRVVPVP
UniProt P31749: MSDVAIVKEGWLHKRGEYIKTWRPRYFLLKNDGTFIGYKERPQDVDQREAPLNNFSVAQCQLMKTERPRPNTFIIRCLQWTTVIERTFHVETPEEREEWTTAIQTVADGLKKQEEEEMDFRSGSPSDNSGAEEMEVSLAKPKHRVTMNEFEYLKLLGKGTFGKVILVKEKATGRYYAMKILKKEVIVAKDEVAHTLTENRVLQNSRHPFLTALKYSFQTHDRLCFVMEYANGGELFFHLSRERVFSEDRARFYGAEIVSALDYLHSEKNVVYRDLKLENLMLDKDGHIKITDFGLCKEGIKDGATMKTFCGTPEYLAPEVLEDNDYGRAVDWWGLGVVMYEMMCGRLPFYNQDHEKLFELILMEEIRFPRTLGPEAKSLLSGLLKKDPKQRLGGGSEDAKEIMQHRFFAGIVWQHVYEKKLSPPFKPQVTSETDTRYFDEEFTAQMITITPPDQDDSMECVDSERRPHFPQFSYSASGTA

Experiment [1] concerns the target Flag-tagged GAPDH (UniProt P04406). The experiment in a line: co-IP; HEK293T cells transfected for 24 h, total lysates in IP lysis buffer (50 mM Tris-HCl pH 7.4, 150 mM NaCl, 1% TritonX-100, 5 mM EDTA, 1% sodium deoxycholate), anti-Flag immunoprecipitation, western blot.
Experiment [2] deals with T1, Flag-tagged PFKL (UniProt P17858).
T1 sequence: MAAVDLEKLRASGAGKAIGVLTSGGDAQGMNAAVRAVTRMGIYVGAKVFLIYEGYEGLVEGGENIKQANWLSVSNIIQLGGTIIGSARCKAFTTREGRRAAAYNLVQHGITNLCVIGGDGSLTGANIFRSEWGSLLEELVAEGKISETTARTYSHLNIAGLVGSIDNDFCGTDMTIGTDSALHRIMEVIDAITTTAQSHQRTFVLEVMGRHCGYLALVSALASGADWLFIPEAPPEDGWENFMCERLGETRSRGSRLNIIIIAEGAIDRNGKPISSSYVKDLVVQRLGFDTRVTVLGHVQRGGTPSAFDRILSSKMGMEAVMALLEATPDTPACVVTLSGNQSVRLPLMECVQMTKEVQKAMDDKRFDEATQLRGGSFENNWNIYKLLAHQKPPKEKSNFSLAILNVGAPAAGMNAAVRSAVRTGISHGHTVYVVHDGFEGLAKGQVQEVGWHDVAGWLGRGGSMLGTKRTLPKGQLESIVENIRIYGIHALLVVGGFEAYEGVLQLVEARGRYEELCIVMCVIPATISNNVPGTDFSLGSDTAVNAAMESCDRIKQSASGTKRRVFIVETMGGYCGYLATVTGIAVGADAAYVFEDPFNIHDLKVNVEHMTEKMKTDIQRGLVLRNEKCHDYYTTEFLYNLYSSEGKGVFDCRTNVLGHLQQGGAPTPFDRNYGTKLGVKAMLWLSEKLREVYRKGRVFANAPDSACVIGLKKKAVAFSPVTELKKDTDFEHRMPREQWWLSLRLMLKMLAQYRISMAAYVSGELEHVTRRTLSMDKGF
The description is as above.

For a further experiment, the target named is Flag-tagged PGK1 (UniProt P00558). Described as above.
The target of experiment [3] is Flag-tagged PKM2 (UniProt P14618). Described as above.
For the next experiment, the target named is Flag-tagged TPI (UniProt P60174). The experiment is described as above.
Experiment [4] addresses ME2fl, endogenous in mouse prostate tissue (mouse (endogenous in prostate tissue)) (UniProt Q99KE1). The experiment in a line: co-IP; endogenous proteins, lysates of prostate tissues of Pb-Cre- Pten L/L and Pb-Cre+ Pten L/L mice, anti-ME2 antibody, western blot.
Experiment [5] concerns the target Flag-tagged GAPDH (UniProt P04406). The experiment is described as follows: co-IP; sequential co-precipitation of exogenous proteins (Supplementary Fig. 12c-g).
For experiment [6], the target named is T1, Flag-tagged PFKL. The description is as above.
Experiment [7] deals with Flag-tagged PKM2 (UniProt P14618). Described as above.
Experiment [8] deals with ME2fl (full-length cytoplasmic malic enzyme 2), transfected (human) (UniProt P23368). The experiment is described as follows: co-IP; cytoplasmic fraction of transfected HEK293T cells, anti-Flag immunoprecipitation, western blot. A general note: In western blotting, separated proteins are transferred to a membrane and probed.
For experiment [9] the target is unchanged. The experiment in a line: co-IP; HEK293T cells transfected for 24 h, total lysates in IP lysis buffer (50 mM Tris-HCl pH 7.4, 150 mM NaCl, 1% TritonX-100, 5 mM EDTA, 1% sodium deoxycholate), anti-Flag immunoprecipitation, western blot.
The target of the next experiment is 5'GST-ME2fl (human). The experiment in a line: pull-down; GST fusion protein from E. coli on glutathione agarose beads, Flag-tagged protein purified from HEK293T; binding buffer 50 mM Tris-HCl pH 8.0, 150 mM NaCl, 1% Triton X-100, 1 mM PMSF, 12 h at 4 °C; anti-Flag blot; both purified.

Results are given in words; binding and its absence hold for the method and conditions named. For part of these data: Binding calls can cover weak binding; strength is not graded here. For part of these data: Sequences can lack the tags named with a protein. For part of these data: In cells and extracts the contact can be indirect.

“ME2flS9D-3'HA (from UniProt P23368) (enzyme)”: the binding entry in the experiment with Flag-tagged GAPDH [1] is listed as “binds”; in the experiment with Flag-tagged PFKL [2] it was “binds”; with Flag-tagged PGK1, “no binding”; in the experiment with Flag-tagged PKM2 [3], “binds”; with Flag-tagged TPI it was “no binding”.
As to “PKM2, endogenous in mouse prostate tissue (from UniProt P52480 1-531) (enzyme)”, the binding entry in experiment [4] is reported as “binds”.
Take “ME2fl (full-length cytoplasmic malic enzyme 2), transfected (from UniProt P23368)”: the binding result with Flag-tagged GAPDH [5], with Flag-tagged PFKL [6], in the experiment with Flag-tagged PKM2 [7], with Flag-tagged GAPDH [1], in the experiment with Flag-tagged PFKL [2] and with Flag-tagged PKM2 [3] was “binds” throughout.
Turning to “AKT1, transfected (from UniProt P31749 1-480) (enzyme)”, the binding result in experiment [8] and in [9] was “binds” in each case.

B1: Flag-tagged PFKL (enzyme, UniProt P17858 1-780)
chain: T1 sequence
Consider B1, for which the binding result with 5'GST-ME2fl (human) was “binds”.
